Laboratory results published in the supplement of paper PMC12595434, “Development of retinoid nuclear receptor pathway antagonists through targeting aldehyde dehydrogenase 1A3” (iScience, 2025).
The list shows a part of the results. Single values of this set are uncertain.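 Many melting curves are irregular; where none melted, Tm was taken as 64 °C.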

The chains behind the UniProt entries cited, without tags or fusion partners. Where a name states a change or a piece, a line headed by the entry shows the natural chain unless it says otherwise.
UniProt Q13885, whole entry: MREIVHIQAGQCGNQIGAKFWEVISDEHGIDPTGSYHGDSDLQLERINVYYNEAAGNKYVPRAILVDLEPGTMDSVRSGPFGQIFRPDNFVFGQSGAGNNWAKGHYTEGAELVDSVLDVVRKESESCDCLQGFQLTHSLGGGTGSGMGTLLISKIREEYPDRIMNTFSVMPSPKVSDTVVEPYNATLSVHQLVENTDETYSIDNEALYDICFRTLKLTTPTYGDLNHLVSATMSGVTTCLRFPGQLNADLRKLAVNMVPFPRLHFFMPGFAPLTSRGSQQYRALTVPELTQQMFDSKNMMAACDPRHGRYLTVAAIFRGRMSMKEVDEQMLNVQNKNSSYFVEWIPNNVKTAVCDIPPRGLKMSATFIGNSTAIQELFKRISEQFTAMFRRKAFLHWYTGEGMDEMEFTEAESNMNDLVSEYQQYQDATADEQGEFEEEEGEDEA
UniProt Q14241: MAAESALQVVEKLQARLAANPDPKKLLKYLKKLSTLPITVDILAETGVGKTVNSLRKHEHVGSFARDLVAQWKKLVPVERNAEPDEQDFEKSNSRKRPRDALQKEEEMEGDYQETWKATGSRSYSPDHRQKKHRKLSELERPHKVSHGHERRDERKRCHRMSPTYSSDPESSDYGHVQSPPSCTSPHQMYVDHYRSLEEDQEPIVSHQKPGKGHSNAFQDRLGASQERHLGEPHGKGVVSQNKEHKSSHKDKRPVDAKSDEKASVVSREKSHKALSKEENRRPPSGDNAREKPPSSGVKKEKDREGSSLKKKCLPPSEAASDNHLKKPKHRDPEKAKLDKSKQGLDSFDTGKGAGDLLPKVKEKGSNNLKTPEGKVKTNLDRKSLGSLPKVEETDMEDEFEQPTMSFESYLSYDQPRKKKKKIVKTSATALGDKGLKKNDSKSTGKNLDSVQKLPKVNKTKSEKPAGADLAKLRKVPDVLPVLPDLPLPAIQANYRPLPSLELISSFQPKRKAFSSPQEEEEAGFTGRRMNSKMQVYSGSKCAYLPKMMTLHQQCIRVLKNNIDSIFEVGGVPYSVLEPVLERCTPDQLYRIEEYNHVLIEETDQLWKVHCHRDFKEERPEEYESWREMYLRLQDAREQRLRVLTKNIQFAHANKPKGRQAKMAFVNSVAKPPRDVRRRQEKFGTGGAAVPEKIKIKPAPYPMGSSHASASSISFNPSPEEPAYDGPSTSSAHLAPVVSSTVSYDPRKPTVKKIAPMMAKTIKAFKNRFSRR
UniProt Q15005: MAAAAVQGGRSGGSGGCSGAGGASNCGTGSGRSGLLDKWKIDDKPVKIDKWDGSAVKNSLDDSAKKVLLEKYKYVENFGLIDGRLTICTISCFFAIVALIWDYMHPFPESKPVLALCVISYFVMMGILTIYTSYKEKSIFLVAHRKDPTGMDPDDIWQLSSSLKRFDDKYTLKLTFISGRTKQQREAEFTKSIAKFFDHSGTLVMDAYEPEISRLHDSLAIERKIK
UniProt Q14573, whole entry: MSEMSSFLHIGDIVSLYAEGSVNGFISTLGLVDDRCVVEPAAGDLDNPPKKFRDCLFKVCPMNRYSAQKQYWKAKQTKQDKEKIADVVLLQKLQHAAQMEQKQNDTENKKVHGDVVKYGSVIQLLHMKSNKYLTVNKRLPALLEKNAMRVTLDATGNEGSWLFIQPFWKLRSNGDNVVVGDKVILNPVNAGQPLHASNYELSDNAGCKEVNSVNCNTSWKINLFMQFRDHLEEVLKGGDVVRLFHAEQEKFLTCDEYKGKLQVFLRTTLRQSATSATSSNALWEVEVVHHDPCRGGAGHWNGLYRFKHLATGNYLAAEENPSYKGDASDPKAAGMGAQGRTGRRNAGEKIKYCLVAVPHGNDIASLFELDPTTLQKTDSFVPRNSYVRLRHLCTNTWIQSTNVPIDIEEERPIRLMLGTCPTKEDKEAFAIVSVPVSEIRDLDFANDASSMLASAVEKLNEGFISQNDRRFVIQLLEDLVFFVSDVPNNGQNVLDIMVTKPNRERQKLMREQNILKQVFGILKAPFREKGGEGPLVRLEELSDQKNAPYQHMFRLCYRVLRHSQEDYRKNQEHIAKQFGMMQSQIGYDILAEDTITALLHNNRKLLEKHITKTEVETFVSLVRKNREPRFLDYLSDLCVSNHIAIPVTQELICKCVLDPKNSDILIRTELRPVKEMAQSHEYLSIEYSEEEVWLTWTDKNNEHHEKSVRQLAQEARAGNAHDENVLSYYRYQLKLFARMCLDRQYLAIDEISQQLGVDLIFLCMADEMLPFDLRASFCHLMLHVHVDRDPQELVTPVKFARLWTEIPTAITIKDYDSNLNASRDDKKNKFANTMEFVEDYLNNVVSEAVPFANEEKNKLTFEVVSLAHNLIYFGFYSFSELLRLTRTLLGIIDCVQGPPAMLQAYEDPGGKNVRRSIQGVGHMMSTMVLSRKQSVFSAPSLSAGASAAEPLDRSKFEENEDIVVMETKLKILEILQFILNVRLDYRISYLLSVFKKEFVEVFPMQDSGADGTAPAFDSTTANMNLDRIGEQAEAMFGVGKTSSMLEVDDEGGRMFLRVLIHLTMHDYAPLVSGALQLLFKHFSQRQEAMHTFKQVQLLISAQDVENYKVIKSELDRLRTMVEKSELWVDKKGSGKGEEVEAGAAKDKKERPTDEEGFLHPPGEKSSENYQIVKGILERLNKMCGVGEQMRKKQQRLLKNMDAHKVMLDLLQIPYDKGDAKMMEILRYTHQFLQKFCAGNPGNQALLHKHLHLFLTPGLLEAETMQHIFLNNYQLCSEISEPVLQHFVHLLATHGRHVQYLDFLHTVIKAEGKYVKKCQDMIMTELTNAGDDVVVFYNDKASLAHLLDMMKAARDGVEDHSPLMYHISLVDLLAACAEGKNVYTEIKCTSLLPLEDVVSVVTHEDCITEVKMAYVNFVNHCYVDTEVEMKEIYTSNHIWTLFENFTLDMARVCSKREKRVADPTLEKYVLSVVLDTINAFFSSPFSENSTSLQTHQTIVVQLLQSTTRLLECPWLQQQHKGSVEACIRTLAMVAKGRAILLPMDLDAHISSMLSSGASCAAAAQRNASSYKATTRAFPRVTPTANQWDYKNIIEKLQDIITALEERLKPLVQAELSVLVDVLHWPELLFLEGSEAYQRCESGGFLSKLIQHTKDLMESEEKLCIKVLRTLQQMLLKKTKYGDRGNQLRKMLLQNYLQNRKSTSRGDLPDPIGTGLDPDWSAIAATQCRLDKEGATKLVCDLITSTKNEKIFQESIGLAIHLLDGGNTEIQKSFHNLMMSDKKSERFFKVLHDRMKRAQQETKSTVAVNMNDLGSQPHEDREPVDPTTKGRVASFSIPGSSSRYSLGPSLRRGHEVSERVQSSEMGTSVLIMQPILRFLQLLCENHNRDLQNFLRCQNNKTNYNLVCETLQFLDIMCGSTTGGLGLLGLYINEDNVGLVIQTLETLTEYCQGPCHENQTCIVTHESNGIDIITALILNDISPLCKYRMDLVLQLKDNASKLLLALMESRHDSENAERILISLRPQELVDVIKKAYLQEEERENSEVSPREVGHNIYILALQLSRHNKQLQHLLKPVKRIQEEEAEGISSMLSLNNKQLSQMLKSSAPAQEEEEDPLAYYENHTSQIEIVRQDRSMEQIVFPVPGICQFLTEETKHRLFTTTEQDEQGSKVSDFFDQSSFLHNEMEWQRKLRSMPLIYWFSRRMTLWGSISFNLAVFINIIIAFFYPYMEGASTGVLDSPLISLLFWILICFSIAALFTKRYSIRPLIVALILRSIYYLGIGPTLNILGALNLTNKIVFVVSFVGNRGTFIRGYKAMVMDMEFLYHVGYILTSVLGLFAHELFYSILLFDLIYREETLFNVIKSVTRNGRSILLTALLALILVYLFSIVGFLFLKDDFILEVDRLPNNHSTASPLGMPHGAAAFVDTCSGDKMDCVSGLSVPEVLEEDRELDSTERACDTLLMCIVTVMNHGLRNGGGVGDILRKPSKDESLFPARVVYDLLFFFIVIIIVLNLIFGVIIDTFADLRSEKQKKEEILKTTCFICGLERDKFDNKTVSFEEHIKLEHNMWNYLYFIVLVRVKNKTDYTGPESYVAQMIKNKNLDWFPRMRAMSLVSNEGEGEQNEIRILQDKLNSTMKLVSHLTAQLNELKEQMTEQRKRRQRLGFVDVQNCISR
UniProt Q13615: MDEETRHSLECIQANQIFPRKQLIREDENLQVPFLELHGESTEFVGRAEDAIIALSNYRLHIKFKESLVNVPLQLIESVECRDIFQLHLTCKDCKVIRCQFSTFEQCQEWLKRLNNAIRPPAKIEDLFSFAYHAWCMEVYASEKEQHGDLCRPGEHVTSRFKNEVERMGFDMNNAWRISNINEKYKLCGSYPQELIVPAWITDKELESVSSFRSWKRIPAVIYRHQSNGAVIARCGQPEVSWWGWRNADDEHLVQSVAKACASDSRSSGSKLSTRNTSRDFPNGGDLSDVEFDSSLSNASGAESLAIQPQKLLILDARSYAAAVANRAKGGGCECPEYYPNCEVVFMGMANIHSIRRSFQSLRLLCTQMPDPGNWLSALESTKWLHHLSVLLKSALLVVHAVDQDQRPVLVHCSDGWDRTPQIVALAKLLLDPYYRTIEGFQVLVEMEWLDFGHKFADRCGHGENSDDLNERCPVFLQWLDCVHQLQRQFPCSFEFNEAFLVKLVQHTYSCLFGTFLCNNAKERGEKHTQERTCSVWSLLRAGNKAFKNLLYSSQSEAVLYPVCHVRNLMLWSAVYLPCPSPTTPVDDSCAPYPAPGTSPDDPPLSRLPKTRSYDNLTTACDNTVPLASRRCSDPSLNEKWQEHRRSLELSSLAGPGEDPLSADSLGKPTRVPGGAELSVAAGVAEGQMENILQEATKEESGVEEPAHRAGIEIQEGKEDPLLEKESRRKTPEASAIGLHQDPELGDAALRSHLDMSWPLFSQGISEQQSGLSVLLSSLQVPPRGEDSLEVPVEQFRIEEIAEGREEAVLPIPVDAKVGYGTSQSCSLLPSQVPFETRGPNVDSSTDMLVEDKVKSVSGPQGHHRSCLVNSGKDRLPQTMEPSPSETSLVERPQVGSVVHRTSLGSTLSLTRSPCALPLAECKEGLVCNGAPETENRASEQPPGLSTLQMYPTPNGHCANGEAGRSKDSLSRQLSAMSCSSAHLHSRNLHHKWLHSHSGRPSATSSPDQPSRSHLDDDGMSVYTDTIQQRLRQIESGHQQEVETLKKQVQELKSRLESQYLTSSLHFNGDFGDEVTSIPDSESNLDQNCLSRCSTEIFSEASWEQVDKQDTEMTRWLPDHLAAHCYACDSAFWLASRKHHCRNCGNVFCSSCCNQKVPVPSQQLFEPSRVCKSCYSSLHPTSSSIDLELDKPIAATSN
UniProt Q13049: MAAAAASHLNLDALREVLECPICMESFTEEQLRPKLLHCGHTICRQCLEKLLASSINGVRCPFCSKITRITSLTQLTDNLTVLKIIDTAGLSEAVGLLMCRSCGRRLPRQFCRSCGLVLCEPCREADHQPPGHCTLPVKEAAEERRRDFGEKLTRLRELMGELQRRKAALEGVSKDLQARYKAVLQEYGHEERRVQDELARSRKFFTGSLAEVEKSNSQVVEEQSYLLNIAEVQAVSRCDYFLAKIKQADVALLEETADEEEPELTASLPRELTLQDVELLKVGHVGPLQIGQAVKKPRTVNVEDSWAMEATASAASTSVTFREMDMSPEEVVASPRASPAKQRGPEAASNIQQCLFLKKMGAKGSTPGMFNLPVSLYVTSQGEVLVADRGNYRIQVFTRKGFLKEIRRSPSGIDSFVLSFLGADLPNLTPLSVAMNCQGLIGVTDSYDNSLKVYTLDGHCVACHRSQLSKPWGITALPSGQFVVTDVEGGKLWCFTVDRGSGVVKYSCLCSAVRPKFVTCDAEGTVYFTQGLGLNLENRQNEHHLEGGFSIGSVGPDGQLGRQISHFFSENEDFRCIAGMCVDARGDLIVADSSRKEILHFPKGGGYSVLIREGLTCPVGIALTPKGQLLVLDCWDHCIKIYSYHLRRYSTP
UniProt Q13123, whole entry: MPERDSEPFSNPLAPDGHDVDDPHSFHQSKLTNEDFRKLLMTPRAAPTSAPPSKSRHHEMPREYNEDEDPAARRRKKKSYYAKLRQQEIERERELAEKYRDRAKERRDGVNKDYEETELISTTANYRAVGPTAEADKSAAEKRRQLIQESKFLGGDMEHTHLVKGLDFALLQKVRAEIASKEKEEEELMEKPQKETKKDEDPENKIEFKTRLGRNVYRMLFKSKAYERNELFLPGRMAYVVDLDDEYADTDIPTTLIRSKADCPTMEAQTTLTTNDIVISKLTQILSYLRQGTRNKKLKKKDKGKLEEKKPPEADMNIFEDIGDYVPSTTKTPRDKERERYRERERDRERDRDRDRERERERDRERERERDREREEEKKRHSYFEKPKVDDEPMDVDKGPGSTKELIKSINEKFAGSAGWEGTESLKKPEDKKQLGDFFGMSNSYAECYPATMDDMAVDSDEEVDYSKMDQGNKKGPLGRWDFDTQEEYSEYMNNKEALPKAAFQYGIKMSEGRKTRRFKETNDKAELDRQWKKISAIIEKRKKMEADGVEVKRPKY

Compound: CCc1cnccc1C(=O)Nc1cc2c(cc1F)NC(=O)CC2
Test: melting temperature shift (DMSO Tm minus MBE1-treated Tm) in cellular thermal proteome profiling; higher = less thermal stabilization by MBE1 (negative = stabilized by MBE1)
Settings: A375

Target	melting temperature shift (MBE1 concentration: 100 nM)	melting temperature shift (MBE1 concentration: 1 uM)
TUBB2A (UniProt Q13885)	-0.598 °C	1.08 °C
CAPRIN1 (UniProt Q14444)	-0.99 °C	-1.58 °C
MELK (UniProt Q14680)	-1.59 °C	-0.703 °C
RRP1B (UniProt Q14684)	-0.32 °C	-0.275 °C
STX5 (UniProt Q13190)	-0.278 °C	-0.437 °C
TCEB3 (UniProt Q14241)	-0.269 °C	0.0897 °C
LARS2 (UniProt Q15031)	0.104 °C	-0.195 °C
PDIA5 (UniProt Q14554)	-0.604 °C	-0.812 °C
SPCS2 (UniProt Q15005)	-0.329 °C	-0.186 °C
KARS (UniProt Q15046)	1.01 °C	0.574 °C
SERINC3 (UniProt Q13530)	-3.03 °C	-4.9 °C
PDCD11 (UniProt Q14690)	-0.314 °C	-0.218 °C
GSE1 (UniProt Q14687)	-0.708 °C	-0.0733 °C
ITPR2 (UniProt Q14571)	-0.579 °C	-0.522 °C
SLBP (UniProt Q14493)	-1.07 °C	-1.06 °C
ITPR3 (UniProt Q14573)	-0.607 °C	-0.395 °C
KPNB1 (UniProt Q14974)	0.745 °C	-0.25 °C
SQLE (UniProt Q14534)	0.812 °C	1.37 °C
CUL7 (UniProt Q14999)	-1.09 °C	-0.847 °C
NMI (UniProt Q13287)	-0.159 °C	-0.33 °C

A portion of the results above, as a working copy:
Target	melting temperature shift (MBE1 concentration: 100 nM)	melting temperature shift (MBE1 concentration: 1 uM)
SPCS2 (UniProt Q15005)	-0.329 °C	-0.186 °C
KARS (UniProt Q15046)	1.01 °C	0.574 °C
SERINC3 (UniProt Q13530)	-3.03 °C	-4.9 °C

Carrying on.

Target	melting temperature shift (MBE1 concentration: 100 nM)	melting temperature shift (MBE1 concentration: 1 uM)
HDAC1 (UniProt Q13547)	-0.32 °C	-0.921 °C
UniProt Q13127	-1.12 °C	0.677 °C
CIRBP (UniProt Q14011)	-1.34 °C	0.557 °C
PDE3A (UniProt Q14432)	-0.701 °C	-1.58 °C
FAM50A (UniProt Q14320)	-0.659 °C	-1.09 °C
ATR (UniProt Q13535)	0.403 °C	-0.238 °C
BECN1 (UniProt Q14457)	-0.763 °C	0.14 °C
PKD2 (UniProt Q13563)	-0.904 °C	-0.25 °C
UniProt Q13115	0.372 °C	-0.0577 °C
TRIP12 (UniProt Q14669)	-0.416 °C	-0.288 °C
UniProt Q15019	-1.16 °C	0.214 °C
SAFB2 (UniProt Q14151)	-0.103 °C	-0.148 °C
EMC2 (UniProt Q15006)	-0.825 °C	-0.409 °C
DOCK1 (UniProt Q14185)	0.678 °C	0.0611 °C
UniProt Q13206	-0.739 °C	-0.24 °C
G3BP1 (UniProt Q13283)	-0.434 °C	0.263 °C
TMED1 (UniProt Q13445)	-1.34 °C	-2.45 °C
HLTF (UniProt Q14527)	0.208 °C	-0.507 °C
UBAP2L (UniProt Q14157)	-2.45 °C	-2.16 °C
MTMR3 (UniProt Q13615)	0.25 °C	0.989 °C

Target	melting temperature shift (MBE1 concentration: 100 nM)	melting temperature shift (MBE1 concentration: 1 uM)
TRIM32 (UniProt Q13049)	-0.55 °C	0.761 °C
PWP1 (UniProt Q13610)	-0.877 °C	0.154 °C
UBE4A (UniProt Q14139)	-0.809 °C	-0.889 °C
UniProt Q13905	0.11 °C	0.395 °C
CHAF1A (UniProt Q13111)	-0.423 °C	-0.308 °C
ESPL1 (UniProt Q14674)	-0.917 °C	-1.09 °C
IK (UniProt Q13123)	-0.292 °C	-0.0612 °C
CUL3 (UniProt Q13618)	-0.51 °C	0.624 °C
RAB31 (UniProt Q13636)	-1.01 °C	-2.24 °C
RAB3GAP1 (UniProt Q15042)	-0.452 °C	-0.499 °C
DHX8 (UniProt Q14562)	0.844 °C	0.0488 °C
ORC2 (UniProt Q13416)	-0.237 °C	-0.519 °C
SLMAP (UniProt Q14BN4)	0.116 °C	-0.0366 °C
PABPC4 (UniProt Q13310)	0.495 °C	0.305 °C
UniProt Q14195	-1.99 °C	-0.0488 °C
PPP2R5D (UniProt Q14738)	-0.409 °C	-0.0329 °C
TSTA3 (UniProt Q13630)	-1.02 °C	-0.56 °C
SRSF5 (UniProt Q13243)	-1.46 °C	-1.69 °C
SPTAN1 (UniProt Q13813)	-0.496 °C	0.0183 °C
ZMYM3 (UniProt Q14202)	-2.09 °C	-0.801 °C
